Laboratory results from paper PMC3656097.
These are yes or no findings as the source states them, for the method shown. Binding seen in cells or lysates may run through a third protein. Some entries that bind do so weakly or less than the wild type.

Protein sequences, listed by entry. Tags and fused reporters are not part of them. Residues count along the entry.
UniProt Q61851, residues 21-801: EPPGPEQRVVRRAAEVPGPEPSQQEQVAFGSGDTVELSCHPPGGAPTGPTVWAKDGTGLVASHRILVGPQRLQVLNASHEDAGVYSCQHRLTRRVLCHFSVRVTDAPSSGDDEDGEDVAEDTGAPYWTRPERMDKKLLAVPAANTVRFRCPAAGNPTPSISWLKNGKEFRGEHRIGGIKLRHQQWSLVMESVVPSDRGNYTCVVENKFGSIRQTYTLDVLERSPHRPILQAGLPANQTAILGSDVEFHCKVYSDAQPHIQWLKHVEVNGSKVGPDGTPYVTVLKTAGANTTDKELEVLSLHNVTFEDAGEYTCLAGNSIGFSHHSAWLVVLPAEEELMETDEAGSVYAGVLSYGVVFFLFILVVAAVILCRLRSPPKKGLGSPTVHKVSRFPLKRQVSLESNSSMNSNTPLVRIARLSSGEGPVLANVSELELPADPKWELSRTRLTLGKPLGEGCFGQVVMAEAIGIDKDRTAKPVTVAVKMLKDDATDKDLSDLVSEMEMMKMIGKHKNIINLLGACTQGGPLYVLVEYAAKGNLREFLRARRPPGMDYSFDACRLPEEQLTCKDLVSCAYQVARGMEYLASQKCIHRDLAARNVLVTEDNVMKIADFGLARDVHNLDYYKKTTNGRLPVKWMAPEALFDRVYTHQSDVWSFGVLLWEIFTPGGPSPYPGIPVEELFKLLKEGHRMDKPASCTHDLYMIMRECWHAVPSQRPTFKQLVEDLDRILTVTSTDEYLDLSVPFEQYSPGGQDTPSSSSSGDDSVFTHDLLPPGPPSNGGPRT
UniProt Q8BG39: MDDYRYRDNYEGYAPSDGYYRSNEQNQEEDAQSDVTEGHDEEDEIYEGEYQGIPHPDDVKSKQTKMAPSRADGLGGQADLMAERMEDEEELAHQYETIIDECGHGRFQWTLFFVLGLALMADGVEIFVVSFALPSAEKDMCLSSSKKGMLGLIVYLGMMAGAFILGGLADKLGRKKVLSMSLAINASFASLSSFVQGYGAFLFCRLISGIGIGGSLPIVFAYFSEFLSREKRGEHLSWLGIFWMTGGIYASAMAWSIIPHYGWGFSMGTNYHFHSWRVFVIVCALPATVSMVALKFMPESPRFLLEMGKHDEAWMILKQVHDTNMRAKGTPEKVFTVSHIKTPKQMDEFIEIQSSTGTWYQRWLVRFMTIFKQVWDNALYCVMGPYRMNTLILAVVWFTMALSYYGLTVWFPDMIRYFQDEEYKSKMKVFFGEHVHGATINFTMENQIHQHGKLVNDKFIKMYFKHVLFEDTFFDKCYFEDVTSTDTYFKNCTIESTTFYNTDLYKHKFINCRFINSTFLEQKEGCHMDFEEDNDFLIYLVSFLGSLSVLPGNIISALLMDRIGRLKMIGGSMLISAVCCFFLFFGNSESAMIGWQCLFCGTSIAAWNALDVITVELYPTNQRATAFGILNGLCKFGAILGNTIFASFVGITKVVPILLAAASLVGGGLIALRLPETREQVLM

What was measured:
[1] = target: FGFR3 of Neuro-2a cells (mouse (endogenous in Neuro-2a)) (UniProt Q61851); test: co-IP
[2] = target: SV2B of Neuro-2a cells (mouse (endogenous in Neuro-2a)) (UniProt Q8BG39); test: co-IP

binding [1] | binding [2] | Substance
binds | – | SV2B of Neuro-2a cells (from UniProt Q8BG39 1-683)
– | binds | FGFR3 of Neuro-2a cells (from UniProt Q61851 21-801) (receptor)
